Results taken from article doi:10.1101/2022.04.21.489116.
These are yes or no findings as the source states them, for the method shown. Binding seen in cells or lysates may run through a third protein. Some entries that bind do so weakly or less than the wild type.

Protein sequences, listed by entry. Tags and fused reporters are not part of them.
UniProt Q969V5: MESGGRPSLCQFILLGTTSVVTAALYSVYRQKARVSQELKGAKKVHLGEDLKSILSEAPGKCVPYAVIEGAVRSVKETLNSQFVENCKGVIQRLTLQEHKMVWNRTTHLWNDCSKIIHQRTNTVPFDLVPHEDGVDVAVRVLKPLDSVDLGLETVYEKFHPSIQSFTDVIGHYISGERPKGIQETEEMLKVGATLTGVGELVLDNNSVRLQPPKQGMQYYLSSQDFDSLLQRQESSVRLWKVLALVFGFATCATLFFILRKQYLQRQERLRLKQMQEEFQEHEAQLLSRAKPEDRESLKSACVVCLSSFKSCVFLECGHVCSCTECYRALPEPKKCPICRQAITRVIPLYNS
UniProt Q99814: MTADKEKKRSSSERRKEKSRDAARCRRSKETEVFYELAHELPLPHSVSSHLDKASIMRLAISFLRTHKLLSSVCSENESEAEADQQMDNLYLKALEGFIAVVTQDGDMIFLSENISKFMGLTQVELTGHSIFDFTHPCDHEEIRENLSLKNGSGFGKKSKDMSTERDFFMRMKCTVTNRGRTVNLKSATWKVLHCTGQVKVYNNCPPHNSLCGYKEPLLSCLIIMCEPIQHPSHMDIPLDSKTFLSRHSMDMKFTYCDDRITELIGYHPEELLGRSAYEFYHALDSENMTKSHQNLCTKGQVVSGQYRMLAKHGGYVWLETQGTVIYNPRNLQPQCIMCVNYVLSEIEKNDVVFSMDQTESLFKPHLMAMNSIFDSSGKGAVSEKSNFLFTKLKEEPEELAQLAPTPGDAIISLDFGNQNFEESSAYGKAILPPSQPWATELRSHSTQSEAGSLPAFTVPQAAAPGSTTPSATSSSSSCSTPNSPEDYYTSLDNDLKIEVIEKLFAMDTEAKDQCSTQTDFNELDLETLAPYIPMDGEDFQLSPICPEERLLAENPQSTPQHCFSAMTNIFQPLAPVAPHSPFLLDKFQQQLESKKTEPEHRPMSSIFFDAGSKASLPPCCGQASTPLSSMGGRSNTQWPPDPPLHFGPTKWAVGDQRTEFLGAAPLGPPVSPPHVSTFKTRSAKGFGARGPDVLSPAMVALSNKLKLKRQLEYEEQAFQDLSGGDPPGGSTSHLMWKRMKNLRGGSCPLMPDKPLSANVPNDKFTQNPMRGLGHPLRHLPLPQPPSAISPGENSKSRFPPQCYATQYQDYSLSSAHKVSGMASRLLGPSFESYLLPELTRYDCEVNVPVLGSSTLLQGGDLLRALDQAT

Target: MUL1 (human (endogenous in 786-O)) (UniProt Q969V5)
Experiment: co-IP

binding: binds
Substance: HIF-2α (from UniProt Q99814 1-870)
